Source: PubChem BioAssay AID1259254 (NCATS, 2017)
Test: 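Gene knock-downs that lead to re-replication, shown by excess G2 DNA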 (primary screen). System: human HCT116 colorectal cancer cells. Reagents: single siRNA against human genes. Duration: 3 days. Measurement: 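Nuclei stained with Hoechst and imaged; cell-cycle phase assigned by DNA content; G2 share scaled per plate, non-targeting siRNA 0%, GMNN siRNA 100%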. Reading the numbers: G2 robust z-score and G2 cells, % of GMNN control: higher = more G2 cells, more excess DNA replication; raw share of cells in G2: higher = larger share of cells with G2 DNA content. Active means: 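An siRNA counts as active if its G2 robust z-score lies at least 5 MADs above the screen median; here such calls match roughly 38% of GMNN control or more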.
Here is a random part of about 59,000 reagents tested. In the full data, about 1,550 (2.6%) were called active. 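G2 share is only a proxy for re-replication; each gene was hit by three separate siRNAs, and active genes were retested.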 Raw values are not corrected between plates. A number with no mark means an inactive call. The numbers tell different reagents against one gene apart. The record does not give: the amount of reagent.

no.	target gene	reagent no.	G2 robust z-score	G2 cells, % of GMNN control	raw share of cells in G2 (%)
1	CELSR1	1	2.73	22.1	13.8
2	CELSR1	2	1.23	11.6	8.59
3	CELSR1	3	2.14	18	8.8
4	FNDC5	1	5.3 (active)	40.3	18.2
5	FNDC5	2	3.37	26.7	12.3
6	FNDC5	3	0.358	5.49	4.94
7	RPP21	1	1.45	13.2	9.67
8	RPP21	2	0.928	9.5	9.39
9	RPP21	3	0.319	5.21	6.08
10	ARRDC4	1	-0.986	-3.97	2.4
11	ARRDC4	2	-0.808	-2.72	2.15
12	ARRDC4	3	-0.0912	2.33	3.66
13	BCL2L2	1	-0.965	-3.82	3.42
14	BCL2L2	2	4.13	32	15.9
15	BCL2L2	3	0.206	4.41	6.64
16	ADRA2B	1	-0.259	1.15	6.25
17	ADRA2B	2	-0.324	0.686	4.76
18	ADRA2B	3	3.06	24.5	10.8
19	SPATS2L	1	2.92	23.5	13.2
20	SPATS2L	2	-0.141	1.97	4.79
21	SPATS2L	3	1.02	10.2	6.85
22	SEMA6A	1	-0.377	0.314	4.46
23	SEMA6A	2	0.339	5.35	6.17
24	SEMA6A	3	3.4	26.9	16.8
25	LOC100287477	1	-0.944	-3.67	2.39
26	LOC100287477	2	0.822	8.75	6.47
27	LOC100287477	3	0.323	5.24	4.71
28	EGFL6	1	-0.276	1.03	4.8
29	EGFL6	2	1.34	12.4	9.3
30	EGFL6	3	-0.945	-3.68	2.01
31	FABP6	1	-0.805	-2.69	4.24
32	FABP6	2	-0.78	-2.52	2.76
33	FABP6	3	1.16	11.1	9.28
34	HMOX1	1	2.28	19	11.2
35	HMOX1	2	-1.6	-8.26	2.54
36	HMOX1	3	0.677	7.73	7.85
37	PHF13	1	2.28	19	10.2
38	PHF13	2	0.313	5.17	4.51
39	PHF13	3	-0.00244	2.95	4.1
40	CCNG1	1	0.363	5.52	6.93
41	CCNG1	2	3.42	27	14.9
42	CCNG1	3	1.11	10.8	7.81
43	SRSF10	1	-0.65	-1.6	5
44	SRSF10	2	2.78	22.5	15.3
45	SRSF10	3	-0.239	1.29	4.26
46	SPTBN2	1	3.2	25.5	16.4
47	SPTBN2	2	1.09	10.6	8.12
48	SPTBN2	3	3.61	28.4	13.4

6 neighbouring records from above, quoted:
no.	target gene	reagent no.	G2 robust z-score	G2 cells, % of GMNN control	raw share of cells in G2 (%)
37	PHF13	1	2.28	19	10.2
38	PHF13	2	0.313	5.17	4.51
39	PHF13	3	-0.00244	2.95	4.1
40	CCNG1	1	0.363	5.52	6.93
41	CCNG1	2	3.42	27	14.9
42	CCNG1	3	1.11	10.8	7.81
